Assay results as given in patent US10676710B2, “Cell culture compositions with antioxidants and methods for polypeptide production” (Genentech, Inc., priority 2013, dated 2020).
Entries after “also recorded” stand apart in the source; their conditions may differ. At least one structure is not confirmed: it was looked up by name or label, or the drawing left a doubt.

What was measured:
IgG1 monoclonal antibody = assay: Antioxidant incubation screening: color intensity of antibody composition after incubation in Media 1/Media 2 mixture; conditions: 1X test concentration in Media 1 + Media 2 mixture, 2 g/L IgG1 mAb, 5 days 37° C.; normalized to positive control (0% change)
Experimental: For antioxidant screening, a total volume of 40 ml media was prepared by mixing 1 part basal Media 1 and 0.3 part feed Media 2 to mirror a representative ratio of media used in cell culture conditions (Table 5). […] The samples were incubated at 37° C. with shaking at 250 rpm for a five day incubation period.
After incubation, the monoclonal antibody was purified using protein A affinity chromatography. The pool was concentrated to 150 g/L using Amicon Centricon centrifugal filter devices (Millipore Corporation, Billerica, Mass.). Color intensity of the concentrated antibody composition was measured in the concentrated protein A pool using an assay wherein higher numerical values indicate higher color intensity and lower numerical values indicate lower color intensity. The numerical results were normalized to the positive control, where the value for the positive control was set at 0% change in color intensity.

[1] = system: antibody producing CHO cells; assay: Shaker flask fed-batch cell culture in basal Media 1/feed Media 2 supplemented with hypotaurine; assay type: cell-based, Chinese hamster
[2] = system: antibody producing CHO cells; assay: 2-liter stirred bioreactor fed-batch cell culture in basal Media 1/feed Media 2 supplemented with hypotaurine or analog; assay type: cell-based, Chinese hamster
Experimental: Antibody producing CHO cells were inoculated at approximately 1.0×10^6 cells/mL in 2-liter stirred bioreactors (Applikon, Foster City, Calif.) containing 1 L of basal Media 1 supplemented with 12.95 mM hypotaurine or 10 mM carboxymethylcysteine (CAS number 638-23-3). Cells were cultured in fed-batch mode with addition of 100 mL of feed Media 2 per liter of cell culture fluid at days 3, 6 and 9 for initiation of the production phase. A positive control was included by culturing cells in Media 1 and 2 without hypotaurine supplementation. The concentration of glucose was analyzed every day and if the glucose concentration fell below 2 g/L, it was replenished from a […] stock solution of glucose for prevention of glucose depletion. Reactors were equipped with calibrated dissolved oxygen, pH and temperature probes. Dissolved oxygen was controlled on-line through sparging with air and/or oxygen. pH was controlled through addition of CO2 or Na2CO3 and antifoam was added to the cultures as needed. The cell cultures were maintained at pH 7.0 and a temperature of 37° C. from days 0 through 3, and then at 35° C. after day 3. […] Osmolality was monitored using an osmometer from Advanced Instruments (Norwood, Mass.). Offline pH and metabolite concentrations were also determined daily using a Nova Bioprofile 400 (Nova Biomedical, Waltham, Mass.). VCC and cell viability was measured daily using a ViCell® automated cell counter (Beckman Coulter, Fullerton, Calif.). […] Color intensity of the concentrated antibody composition was measured in the concentrated protein A pool using two different assays wherein higher numerical values indicated higher color intensity and lower numerical values indicated lower color intensity. […] This color intensity reduction was confirmed by using a second color assay which detected an approximate 17% and 13% color intensity reduction in antibody compositions isolated from cell cultured in media supplemented with hypotaurine and carboxymethylcysteine, respectively (FIG. 9B).

With `NCCS(=O)O` [hypotaurine, 2-aminoethane-1-sulfinate] the “reduction of color intensity of the antibody-containing compositions” value (IgG1 monoclonal antibody) was “approximately 25%”, the “antibody production (antibody titer by HPLC)” value ([1]; Media 1 supplemented with hypotaurine on Day 0, vs media not containing hypotaurine, exception: incremental addition (FIG. 4C)) was “same level of antibody titers; also recorded: did not compromise” and the “cell growth as measured by VCC” value ([1]; Media 1 with 9.16, 4.58 or 2.29 mM hypotaurine, 14 day culture, vs cultures without hypotaurine (FIG. 4A)) was “comparable; also recorded: did not compromise”. For the same molecule, the cell viability ([1]; Media 1 with 9.16, 4.58 or 2.29 mM hypotaurine, 14 day culture, vs cultures without hypotaurine (FIG. 4B)) was “comparable; also recorded: did not compromise”, the “cell growth as measured by VCC” value ([2]; 12.95 mM hypotaurine or 10 mM carboxymethylcysteine in Media 1, 2 L bioreactor (FIG. 7A)) was “comparable; also recorded: did not compromise” and the cell viability ([2]; 12.95 mM hypotaurine or 10 mM carboxymethylcysteine in Media 1, 2 L bioreactor (FIG. 7B)) was “comparable; also recorded: did not compromise”. The “antibody production (antibody titer by HPLC)” value ([2]; 12.95 mM hypotaurine or 10 mM carboxymethylcysteine in Media 1, 2 L bioreactor (FIG. 8)) was “comparable levels of antibody titers; also recorded: did not significantly reduce”.
